PubChem BioAssay AID1224829, NIAID | 2016
The whole screen tested about 3,800 reagents; shown is an unselected part. 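Calls cover raised and lowered translocation; gene median uses one vendor's three siRNAs; qiagen siRNAs acted more weakly than ambion siRNAs.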 Unmarked entries are inactive. Reagents against one gene are numbered here. Not all columns of the deposit are shown. No sequences are given here.

Test: 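Follow-up of TLR4-NF-kappaB regulators using six separate siRNAs for each gene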 (follow-up of hits)
Cells: mouse RAW264.7 G9 macrophage reporter cells
Reagent: single siRNA against mouse genes, 100 nM
Time to read-out: 2 days of siRNA knock-down, then 40 min of LPS before fixing
Treatment: LPS (Salmonella minnesota R595) at 10 ng/ml
Measurement: 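High-content images after 40 min LPS exposure; GFP-p65 nucleus to surrounding ring signal ratio, normalised to plate median and non-targeting control wells, expressed as z-score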
Direction: p65 translocation z-score: higher = more nuclear NF-kappaB p65 after LPS
Active means: 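An siRNA is called active when the mean z-score of its two replicates is above 2 or below -2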
Calls: active = changed p65 translocation (either direction); inactive = no clear change

Senp3 #1, siRNA vendor or control pool ambion single siRNA — p65 translocation z-score, replicate mean = -3.21 (active)
Senp3 #2, siRNA vendor or control pool ambion single siRNA — p65 translocation z-score, replicate mean = 1.57
Senp3 #3, siRNA vendor or control pool ambion single siRNA — p65 translocation z-score, replicate mean = -2.15 (active)
Senp3 #4, siRNA vendor or control pool qiagen single siRNA — p65 translocation z-score, replicate mean = 2.8 (active)
Senp3 #5, siRNA vendor or control pool qiagen single siRNA — p65 translocation z-score, replicate mean = -1.62
Senp3 #6, siRNA vendor or control pool qiagen single siRNA — p65 translocation z-score, replicate mean = -3.73 (active)
Psmb7 #1, siRNA vendor or control pool ambion single siRNA — p65 translocation z-score, replicate mean = 0.0349
Psmb7 #2, siRNA vendor or control pool ambion single siRNA — p65 translocation z-score, replicate mean = -0.116
Psmb7 #3, siRNA vendor or control pool ambion single siRNA — p65 translocation z-score, replicate mean = 0.259
Gpr83 #1, siRNA vendor or control pool ambion single siRNA — p65 translocation z-score, replicate mean = -3.77 (active)
Gpr83 #2, siRNA vendor or control pool ambion single siRNA — p65 translocation z-score, replicate mean = -3.52 (active)
Gpr83 #3, siRNA vendor or control pool ambion single siRNA — p65 translocation z-score, replicate mean = -1.53
Gpr83 #4, siRNA vendor or control pool qiagen single siRNA — p65 translocation z-score, replicate mean = -0.0707
Gpr83 #5, siRNA vendor or control pool qiagen single siRNA — p65 translocation z-score, replicate mean = -1.82
Gpr83 #6, siRNA vendor or control pool qiagen single siRNA — p65 translocation z-score, replicate mean = 0.111
Polr1c #1, siRNA vendor or control pool ambion single siRNA — p65 translocation z-score, replicate mean = -4.02 (active)
Polr1c #2, siRNA vendor or control pool ambion single siRNA — p65 translocation z-score, replicate mean = -4.64 (active)
Polr1c #3, siRNA vendor or control pool ambion single siRNA — p65 translocation z-score, replicate mean = -2.66 (active)
Polr1c #4, siRNA vendor or control pool qiagen single siRNA — p65 translocation z-score, replicate mean = 1.59
Polr1c #5, siRNA vendor or control pool qiagen single siRNA — p65 translocation z-score, replicate mean = 1.25
Polr1c #6, siRNA vendor or control pool qiagen single siRNA — p65 translocation z-score, replicate mean = 0.497
Zkscan14 #1, siRNA vendor or control pool ambion single siRNA — p65 translocation z-score, replicate mean = -0.423
Zkscan14 #2, siRNA vendor or control pool ambion single siRNA — p65 translocation z-score, replicate mean = -1.21
Zkscan14 #3, siRNA vendor or control pool ambion single siRNA — p65 translocation z-score, replicate mean = -0.292
Zkscan14 #4, siRNA vendor or control pool qiagen single siRNA — p65 translocation z-score, replicate mean = -0.738
Zkscan14 #5, siRNA vendor or control pool qiagen single siRNA — p65 translocation z-score, replicate mean = 0.374
Zkscan14 #6, siRNA vendor or control pool qiagen single siRNA — p65 translocation z-score, replicate mean = 3.39 (active)
Tsg101 #1, siRNA vendor or control pool ambion single siRNA — p65 translocation z-score, replicate mean = 3.66 (active)
Tsg101 #2, siRNA vendor or control pool ambion single siRNA — p65 translocation z-score, replicate mean = -1.44
Tsg101 #3, siRNA vendor or control pool ambion single siRNA — p65 translocation z-score, replicate mean = -2.04 (active)
Tsg101 #4, siRNA vendor or control pool qiagen single siRNA — p65 translocation z-score, replicate mean = 1.59
Tsg101 #5, siRNA vendor or control pool qiagen single siRNA — p65 translocation z-score, replicate mean = 0.354
Tsg101 #6, siRNA vendor or control pool qiagen single siRNA — p65 translocation z-score, replicate mean = -1.16

5 of these entries in another layout.
| gene symbol | reagent | siRNA vendor or control pool | p65 translocation z-score, replicate mean |
| --- | --- | --- | --- |
| Polr1c | 2 | ambion single siRNA | -4.64 (active) |
| Polr1c | 3 | ambion single siRNA | -2.66 (active) |
| Polr1c | 4 | qiagen single siRNA | 1.59 |
| Polr1c | 5 | qiagen single siRNA | 1.25 |
| Polr1c | 6 | qiagen single siRNA | 0.497 |
